From article PMC3170336
These are yes or no findings as the source states them, for the method shown. Binding seen in cells or lysates may run through a third protein. Some binding calls cover weakened binding; strength is not graded here.

T1: CD99 long form (retrovirally expressed in CD99 negative Ramos cells) (UniProt P14209)
T1 sequence: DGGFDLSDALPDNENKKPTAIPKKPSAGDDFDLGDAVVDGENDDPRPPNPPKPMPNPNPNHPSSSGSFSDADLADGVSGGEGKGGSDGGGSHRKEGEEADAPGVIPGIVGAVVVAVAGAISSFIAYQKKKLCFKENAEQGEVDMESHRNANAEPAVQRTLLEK


Target: T1, CD99 long form (retrovirally expressed in CD99 negative Ramos cells)
Assay: co-IP; lysates of Ramos cells expressing CD99 short form or CD99 long form precipitated with anti-CD99 mAb; Western blot with anti-MHC class I, anti-MHC class II, anti-CD81, anti-NTAL mAbs; CD99 negative Ramos cells as control

Binder | binding
tetraspanin CD81 (endogenous, Ramos cells) (protein, UniProt P60033 1-236) MGVEGCTKCIKYLLFVFNFVFWLAGGVILGVALWLRHDPQTTNLLYLELGDKPAPNTFYVGIYILIAVGAVMMFVGFLGCYGAIQESQCLLGTFFTCLVILFACEVAAGIWGFVNKDQIAKDVKQFYDQALQQAVVDDDANNAKAVVKTFHETLDCCGSSTLTALTTSVLKNNLCPSGSNIISNLFKEDCHQKIDDLFSGKLYLIGIAAIVVAVIMIFEMILSMVLCCGIRNSSVY | binds
NTAL (endogenous, Ramos cells) (protein, UniProt Q9GZY6 1-243) MSSGTELLWPGAALLVLLGVAASLCVRCSRPGAKRSEKIYQQRSLREDQQSFTGSRTYSLVGQAWPGPLADMAPTRKDKLLQFYPSLEDPASSRYQNFSKGSRHGSEEAYIDPIAMEYYNWGRFSKPPEDDDANSYENVLICKQKTTETGAQQEGIGGLCRGDLSLSLALKTGPTSGLCPSASPEEDEESEDYQNSASIHQWRESRKVMGQLQREASPGPVGSPDEEDGEPDYVNGEVAATEA | no binding
